# Experiments:
# primary AML samples [1] = assay: HLA class I ligandome analysis (W6/32 immunoaffinity purification, LC-MS/MS) of primary AML samples; parameters: species or system human; settings: for Number of positive AMLs: AML patients (n=15); for rep. frequency: representation frequency in AML patients (n=15)
# primary AML samples [2] = assay: HLA class II ligandome analysis (LC-MS/MS) of primary AML samples; parameters: species or system human; settings: AML patients n=12
Molecule,Number of positive AMLs (primary AML samples [1]; source protein (LiTAA)),rep. frequency (primary AML samples [1]; source protein (LiTAA)),also measured
"TGFBRAP1 (protein, UniProt Q8WUH2 1-860, looked up) Transforming growth …: MMSIKAFTLVSAVERELLMGDKERVNIECVECCGRDLYVGTNDCFVYHFLLEERPVPAGPATFTATKQLQRHLGFKKPVNELRAASALNRLLVLCDNSISLVNMLNLEPVPSGARIKGAATFALNENPVSGDPFCVEVCIISVKRRTIQMFLVYEDRVQIVKEVSTAEQPLAVAVDGHFLCLALTTQYIIHNYSTGVSQDLFPYCSEERPPIVKRIGRQEFLLAGPGGLGMFATVAGISQRAPVHWSENVIGAAVSFPYVIALDDEFITVHSMLDQQQKQTLPFKEGHILQDFEGRVIVATSKGVYILVPLPLEKQIQDLLASRRVEEALVLAKGARRNIPKEKFQVMYRRILQQAGFIQFAQLQFLEAKELFRSGQLDVRELISLYPFLLPTSSSFTRSHPPLHEYADLNQLTQGDQEKMAKCKRFLMSYLNEVRSTEVANGYKEDIDTALLKLYAEADHDSLLDLLVTENFCLLTDSAAWLEKHKKYFALGLLYHYNNQDAAAVQLWVNIVNGDVQDSTRSDLYEYIVDFLTYCLDEELVWAYADWVLQKSEEVGVQVFTKRPLDEQQKNSFNPDDIINCLKKYPKALVKYLEHLVIDKRLQKEEYHTHLAVLYLEEVLLQRASASGKGAEATETQAKLRRLLQKSDLYRVHFLLERLQGAGLPMESAILHGKLGEHEKALHILVHELQDFAAAEDYCLWCSEGRDPPHRQQLFHTLLAIYLHAGPTAHELAVAAVDLLNRHATEFDAAQVLQMLPDTWSVQLLCPFLMGAMRDSIHARRTMQVALGLARSENLIYTYDKMKLKGSSIQLSDKKLCQICQNPFCEPVFVRYPNGGLVHTHCAASRHTNPSSSSPGTRT",–,–,"Number of positive AMLs (primary AML samples [1]; HLA class I ligandome, count for the HLA ligand (LiTAP) or, on protein lines, for the source protein (LiTAA)): 5; Number of positive AMLs [rep. frequency] (primary AML samples [1]; representation frequency of the source protein (LiTAA) in AML patients (n=15)): [33.3%]"
"CCDC115 (protein, UniProt Q96NT0 1-180, looked up) Vacuolar ATPase assembly …: MAALDLRAELDSLVLQLLGDLEELEGKRTVLNARVEEGWLSLAKARYAMGAKSVGPLQYASHMEPQVCLHASEAQEGLQKFKVVRAGVHAPEEVGPREAGLRRRKGPTKTPEPESSEAPQDPLNWFGILVPHSLRQAQASFRDGLQLAADIASLQNRIDWGRSQLRGLQEKLKQLEPGAA",3,[20.0%],–
"ACCS (protein, UniProt Q96QU6 1-501, looked up) 1-aminocyclopropane-1-carboxyl …: MFTLPQKDFRAPTTCLGPTCMQDLGSSHGEDLEGECSRKLDQKLPELRGVGDPAMISSDTSYLSSRGRMIKWFWDSAEEGYRTYHMDEYDEDKNPSGIINLGTSENKLCFDLLSWRLSQRDMQRVEPSLLQYADWRGHLFLREEVAKFLSFYCKSPVPLRPENVVVLNGGASLFSALATVLCEAGEAFLIPTPYYGAITQHVCLYGNIRLAYVYLDSEVTGLDTRPFQLTVEKLEMALREAHSEGVKVKGLILISPQNPLGDVYSPEELQEYLVFAKRHRLHVIVDEVYMLSVFEKSVGYRSVLSLERLPDPQRTHVMWATSKDFGMSGLRFGTLYTENQDVATAVASLCRYHGLSGLVQYQMAQLLRDRDWINQVYLPENHARLKAAHTYVSEELRALGIPFLSRGAGFFIWVDLRKYLPKGTFEEEMLLWRRFLDNKVLLSFGKAFECKEPGWFRFVFSDQVHRLCLGMQRVQQVLAGKSQVAEDPRPSQSQEPSDQRR",3,[20.0%],–
"ACBD6 (protein, UniProt Q9BR61 1-282, looked up) Acyl-CoA-binding …: MASSFLPAGAITGDSGGELSSGDDSGEVEFPHSPEIEETSCLAELFEKAAAHLQGLIQVASREQLLYLYARYKQVKVGNCNTPKPSFFDFEGKQKWEAWKALGDSSPSQAMQEYIAVVKKLDPGWNPQIPEKKGKEANTGFGGPVISSLYHEETIREEDKNIFDYCRENNIDHITKAIKSKNVDVNVKDEEGRALLHWACDRGHKELVTVLLQHRADINCQDNEGQTALHYASACEFLDIVELLLQSGADPTLRDQDGCLPEEVTGCKTVSLVLQRHTTGKA",3,[20.0%],–
"SIKE1 (protein, UniProt Q9BRV8 1-207, looked up) Suppressor of IKBKE 1: MSCTIEKILTDAKTLLERLREHDAAAESLVDQSAALHRRVAAMREAGTALPDQYQEDASDMKDMSKYKPHILLSQENTQIRDLQQENRELWISLEEHQDALELIMSKYRKQMLQLMVAKKAVDAEPVLKAHQSHSAEIESQIDRICEMGEVMRKAVQVDDDQFCKIQEKLAQLELENKELRELLSISSESLQARKENSMDTASQAIK",3,[20.0%],–
"EDEM2 (protein, UniProt Q9BV94 22-578, looked up) ER degradation-enhancing …: APGPDGSAPDPAHYRERVKAMFYHAYDSYLENAFPFDELRPLTCDGHDTWGSFSLTLIDALDTLLILGNVSEFQRVVEVLQDSVDFDIDVNASVFETNIRVVGGLLSAHLLSKKAGVEVEAGWPCSGPLLRMAEEAARKLLPAFQTPTGMPYGTVNLLHGVNPGETPVTCTAGIGTFIVEFATLSSLTGDPVFEDVARVALMRLWESRSDIGLVGNHIDVLTGKWVAQDAGIGAGVDSYFEYLVKGAILLQDKKLMAMFLEYNKAIRNYTRFDDWYLWVQMYKGTVSMPVFQSLEAYWPGLQSLIGDIDNAMRTFLNYYTVWKQFGGLPEFYNIPQGYTVEKREGYPLRPELIESAMYLYRATGDPTLLELGRDAVESIEKISKVECGFATIKDLRDHKLDNRMESFFLAETVKYLYLLFDPTNFIHNNGSTFDAVITPYGECILGAGGYIFNTEAHPIDPAALHCCQRLKEEQWEVEDLMREFYSLKRSRSKFQKNTVSSGPWEPPARPGTLFSPENHDQARERKPAKQKVPLLSCPSQPFTSKLALLGQVFLDSS",3,[20.0%],–
"NUP85 (protein, UniProt Q9BW27 1-656, looked up) Nuclear pore complex protein …: MEELDGEPTVTLIPGVNSKKNQMYFDWGPGEMLVCETSFNKKEKSEMVPSCPFIYIIRKDVDVYSQILRKLFNESHGIFLGLQRIDEELTGKSRKSQLVRVSKNYRSVIRACMEEMHQVAIAAKDPANGRQFSSQVSILSAMELIWNLCEILFIEVAPAGPLLLHLLDWVRLHVCEVDSLSADVLGSENPSKHDSFWNLVTILVLQGRLDEARQMLSKEADASPASAGICRIMGDLMRTMPILSPGNTQTLTELELKWQHWHEECERYLQDSTFATSPHLESLLKIMLGDEAALLEQKELLSNWYHFLVTRLLYSNPTVKPIDLHYYAQSSLDLFLGGESSPEPLDNILLAAFEFDIHQVIKECSIALSNWWFVAHLTDLLDHCKLLQSHNLYFGSNMREFLLLEYASGLFAHPSLWQLGVDYFDYCPELGRVSLELHIERIPLNTEQKALKVLRICEQRQMTEQVRSICKILAMKAVRNNRLGSALSWSIRAKDAAFATLVSDRFLRDYCERGCFSDLDLIDNLGPAMMLSDRLTFLGKYREFHRMYGEKRFADAASLLLSLMTSRIAPRSFWMTLLTDALPLLEQKQVIFSAEQTYELMRCLEDLTSRRPVHGESDTEQLQDDDIETTKVEMLRLSLARNLARAIIREGSLEGS",3,[20.0%],–
"SPATC1L (protein, UniProt Q9H0A9 1-340, looked up) Speriolin-like protein: MAEGGELMSRLLSENADLKKQVRLLKENQMLRRLLSQSCQEGGGHDLLPPRAHAYPEAGSPGSGVPDFGRFTSVADTPSQLQTSSLEDLLCSHAPLSSEDDTSPGCAAPSQAPFKAFLSPPEPHSHRGTDRKLSPLLSPLQDSLVDKTLLEPREMVRPKKVCFSESSLPTGDRTRRSYYLNEIQSFAGAEKDARVVGEIAFQLDRRILAYVFPGVTRLYGFTVANIPEKIEQTSTKSLDGSVDERKLRELTQRYLALSARLEKLGYSRDVHPAFSEFLINTYGILKQRPDLRANPLHSSPAALRKLVIDVVPPKFLGDSLLLLNCLCELSKEDGKPLFAW",3,[20.0%],–
"IKZE4 (protein, UniProt Q9H2S9 1-585, looked up) Zinc finger protein Eos: MHTPPALPRRFQGGGRVRTPGSHRQGKDNLERDPSGGCVPDFLPQAQDSNHFIMESLFCESSGDSSLEKEFLGAPVGPSVSTPNSQHSSPSRSLSANSIKVEMYSDEESSRLLGPDERLLEKDDSVIVEDSLSEPLGYCDGSGPEPHSPGGIRLPNGKLKCDVCGMVCIGPNVLMVHKRSHTGERPFHCNQCGASFTQKGNLLRHIKLHSGEKPFKCPFCNYACRRRDALTGHLRTHSVSSPTVGKPYKCNYCGRSYKQQSTLEEHKERCHNYLQSLSTEAQALAGQPGDEIRDLEMVPDSMLHSSSERPTFIDRLANSLTKRKRSTPQKFVGEKQMRFSLSDLPYDVNSGGYEKDVELVAHHSLEPGFGSSLAFVGAEHLRPLRLPPTNCISELTPVISSVYTQMQPLPGRLELPGSREAGEGPEDLADGGPLLYRPRGPLTDPGASPSNGCQDSTDTESNHEDRVAGVVSLPQGPPPQPPPTIVVGRHSPAYAKEDPKPQEGLLRGTPGPSKEVLRVVGESGEPVKAFKCEHCRILFLDHVMFTIHMGCHGFRDPFECNICGYHSQDRYEFSSHIVRGEHKVG",3,[20.0%],–
"CREG1 cellular repressor of E1A-stimulated genes 1: HLA class II ligandome-derived tumor-associated antigen (LiTAA), source protein of the peptides listed under it (protein, UniProt O75629 32-220, looked up) Protein CREG1: RGGRDHGDWDEASRLPPLPPREDAARVARFVTHVSDWGALATISTLEAVRGRPFADVLSLSDGPPGAGSGVPYFYLSPLQLSVSNLQENPYATLTMTLAQTNFCKKHGFDPQSPLCVHIMLSGTVTKVNETEMDIAKHSLFIRHPEMKTWPSSHNWFFAKLNITNIWVLDYFGGPKIVTPEEYYNVTVQ",–,–,"Number of positive AMLs (primary AML samples [2]; HLA class II ligandome): 3; rep. frequency in AMLs (primary AML samples [2]; source protein level, HLA class II): 25.0%"

# Source: patent US10525115B2 (Immatics Biotechnologies GmbH, priority 2014, dated 2020)
